These results are taken from PubChem BioAssay AID330 (DTP/NCI, 2004).

The list does not hold the whole screen: it is rich in T/C values a quarter to a half above the control, in often repeated tests (any T/C) and in doses without a T/C. Further doses and runs are listed elsewhere. T/C: endpoint of the treated group in % of that of the vehicle group. Some doses have a count of surviving animals in place of a T/C: the source holds a T/C of zero for them, seemingly a mark for toxic or unscored doses. Some survivor counts are full or nearly so, which does not show that the dose was tolerated: the source hardly ever lists a survival T/C far under the control, and the zero likely stands for such cases as well. Survivors were counted at the toxicity check, usually on the fifth day, unless a day is given; later deaths do not show. Schedule codes are those of the source, read here as Q, the interval in days (D) or hours (H), X, the number of doses. For survival time, the PubChem record calls one and a half times the control and up active, and a quarter to a half above the control has no call in these data; cut-offs in other NCI protocols can differ. Some doses were run more than once; the results are listed from low to high.

In this experiment the test system is P388 leukemia ip, CD2F1 mice, survival T/C. In words: NCI In Vivo Anticancer Drug Screen. Data for tumor model P388 Leukemia (intraperitoneal) in CD2F1 (CDF1) mice. Conditions: T/C endpoint: median survival time, higher T/C = longer survival.
Where [1] appears, read: dose: 100.0 mg/kg/injection, schedule: Q01DX005 (ip), vehicle: Klucel (hydroxypropylcellulose) (HPC).
[2] abbreviates: dose: 200.0 mg/kg/injection, schedule: Q01DX005 (ip), vehicle: Klucel (hydroxypropylcellulose) (HPC).
Where [3] appears, read: dose: 50.0 mg/kg/injection, schedule: Q01DX005 (ip), vehicle: saline with Tween-80.
Setting [4] is: dose: 100.0 mg/kg/injection, schedule: Q01DX005 (ip), vehicle: saline with Tween-80.
[5] abbreviates: dose: 200.0 mg/kg/injection, schedule: Q01DX005 (ip), vehicle: saline with Tween-80.
Where [6] appears, read: dose: 120.0 mg/kg/injection, schedule: Q01DX005 (ip), vehicle: saline.
The mark [7] stands for this setting: dose: 240.0 mg/kg/injection, schedule: Q01DX005 (ip), vehicle: saline.
Setting [8] is: dose: 400.0 mg/kg/injection, schedule: Q01DX001 (ip), vehicle: saline.

As to `COc1cc(C2c3cc4c(cc3[C@@H](OC3OC5CO[C@@H](C)OC5C(O)C3O)[C@H]3COC(=O)C23)OCO4)cc(OC)c1OC` (some centres not stated), the T/C (dose: 4.0 mg/kg/injection, schedule: Q01DX005 (ip), vehicle: saline) is 144 % of control; the T/C (dose: 8.0 mg/kg/injection, schedule: Q01DX005 (ip), vehicle: saline) was 130 and 144 % of control; the T/C (dose: 16.0 mg/kg/injection, schedule: Q01DX005 (ip), vehicle: saline) was 135 % of control; the T/C (dose: 32.0 mg/kg/injection, schedule: Q01DX005 (ip), vehicle: saline) was 148 % of control.

Take `CCC1CCC2CCCCN2CO1` (configuration not stated): the survivor count (dose: 200.0 mg/kg/injection, schedule: Q01DX005 (ip), vehicle: saline) is given as 2 of 6.

As for `NC(=O)C1CNCC(C(N)=O)C1` (configuration not stated), the survivor count is, setting by setting: (dose: 100.0 mg/kg/injection, schedule: Q01DX009 (ip), vehicle: saline) 0 of 6; (dose: 200.0 mg/kg/injection, schedule: Q01DX009 (ip), vehicle: saline) 0 of 6.

Turning to `Cc1nn(-c2ccc(Cl)cc2)c2nc(N)nc(N)c12`, where the note is “dose: 25.0 mg/kg/injection, schedule: Q04DX002 (ip), vehicle: Klucel (hydroxypropylcellulose) (HPC)”, the survivor count was 6 of 6.

As for `Cc1ccc(S(=O)(=O)OI(O)c2ccccc2)cc1`, for the setting “dose: 200.0 mg/kg/injection, schedule: Q01DX009 (ip), vehicle: water”, the survivor count was 0 of 6.

Regarding `COc1ccc2c(c1OC)C[N+]1(C)CCc3cc4c(cc3C1=C2C)OCO4` (configuration not stated), the survivor count (dose: 12.5 mg/kg/injection, schedule: Q01DX005 (ip), vehicle: Klucel (hydroxypropylcellulose) (HPC)) was 3 of 5; the survivor count (dose: 25.0 mg/kg/injection, schedule: Q01DX005 (ip), vehicle: Klucel (hydroxypropylcellulose) (HPC)) is listed as 0 of 5; the survivor count (dose: 50.0 mg/kg/injection, schedule: Q01DX005 (ip), vehicle: Klucel (hydroxypropylcellulose) (HPC)) was 0 of 6; the survivor count under setting [1] is 0 of 6; the survivor count under setting [2] was 0 of 6.

Regarding `CC(=O)C(C(C)=O)[N+](=O)[O-].CC(=O)C(C(C)=O)[N+](=O)[O-].[Cu]`, the survivor count (dose: 25.0 mg/kg/injection, schedule: Q01DX005 (ip), vehicle: saline with Tween-80) was 2 of 5; the survivor count under setting [3] is 1 of 5; the survivor count under setting [4] is on record as 0 of 5; the survivor count under setting [5] is reported as 0 of 5.

In the case of `C=C1[C@@H](NC)CC[C@]23C[C@]24CC[C@]2(C)[C@@H]([C@H](C)NC)[C@H](O)C[C@@]2(C)[C@@H]4CC[C@@H]13`, the survivor count (dose: 200.0 mg/kg/injection, schedule: Q01DX001 (ip), vehicle: saline with Tween-80) is 3 of 6.

With `O=C(CC(=O)c1ccc(Cl)s1)C(=O)NC1C2CC3CC(C2)CC1C3` (configuration not stated), the survivor count is listed as 6 of 6 (dose: 15.0 mg/kg/injection, schedule: Q01DX005 (ip), vehicle: saline with Tween-80); 3 of 6 (dose: 120.0 mg/kg/injection, schedule: Q01DX005 (ip), vehicle: saline with Tween-80); 0 of 6 (dose: 240.0 mg/kg/injection, schedule: Q01DX005 (ip), vehicle: saline with Tween-80).

As to `CCCCN(CCCC)CCNc1ccc(C)c2sc3cc(Cl)ccc3c(=O)c12`, the survivor count under setting [2] is reported as 5 of 5.

With `Cc1ccc2nc(NC(=O)N(CCCl)N=O)sc2c1`, the T/C reads like this: (dose: 100.0 mg/kg/injection, schedule: Q04DX003 (ip), vehicle: saline with Tween-80) 127 % of control; (dose: 200.0 mg/kg/injection, schedule: Q04DX003 (ip), vehicle: saline with Tween-80) 145 % of control; (dose: 264.0 mg/kg/injection, schedule: Q04DX003 (ip), vehicle: saline sonified) 130 % of control; (dose: 400.0 mg/kg/injection, schedule: Q04DX003 (ip), vehicle: saline sonified) 135 % of control. Also, the survivor count (dose: 600.0 mg/kg/injection, schedule: Q04DX003 (ip), vehicle: saline sonified) is recorded as 1 of 6.

`COc1cc2c[n+](C)c3c4cc(O)ccc4ccc3c2cc1OC`: the T/C by setting is: (dose: 5.0 mg/kg/injection, schedule: Q01DX009 (ip), vehicle: water) 133 % of control; (dose: 10.0 mg/kg/injection, schedule: Q01DX009 (ip), vehicle: water) 133 % of control; (dose: 20.0 mg/kg/injection, schedule: Q01DX009 (ip), vehicle: water) 137 % of control; (dose: 40.0 mg/kg/injection, schedule: Q01DX009 (ip), vehicle: water) 142 % of control; (dose: 80.0 mg/kg/injection, schedule: Q01DX009 (ip), vehicle: water) 142 % of control.

On to `CC(C)c1cc(C(=O)[O-])c(O)c(C(C)C)c1.CC(C)c1cc(C(=O)[O-])c(O)c(C(C)C)c1.CC1OC(O[C@H]2/C=C/C=C/C=C/C=C/C=C/C=C/C=C/C(C)[C@@H](O)C(C)C(C)OC(=O)C[C@H](O)C[C@H](O)CC[C@@H](O)[C@H](O)C[C@H](O)C[C@]3(O)CC(O)[C@@H](C(=O)O)[C@H](C2)O3)C(O)C(N)C1O.[Cu+2]` (some centres not stated), for which the survivor count is 3 of 6 (dose: 100.0 mg/kg/injection, schedule: Q04DX002 (ip), vehicle: saline with Tween-80); 1 of 6 (dose: 200.0 mg/kg/injection, schedule: Q04DX002 (ip), vehicle: saline with Tween-80); 0 of 6 (dose: 400.0 mg/kg/injection, schedule: Q04DX002 (ip), vehicle: saline with Tween-80).

Turning to `O=[N+]([O-])c1ccc(/C=C\S(=O)(=O)OCCCl)cc1`, the survivor count is on record as 3 of 6 under setting [1] and 0 of 6 under setting [2].

For the molecule `O=S(=O)(F)c1ccc(O)cc1`, the survivor count reads like this: under setting [6], 0 of 6; under setting [7], 0 of 6.

In the case of `Cc1cc(=NO)cc(C)n1O`, the T/C was 125 % of control (dose: 100.0 mg/kg/injection, schedule: Q01DX005 (ip), vehicle: distilled water + alcohol); 127 and 131 % of control (dose: 200.0 mg/kg/injection, schedule: Q01DX005 (ip), vehicle: distilled water + alcohol); 136 % of control (dose: 400.0 mg/kg/injection, schedule: Q01DX005 (ip), vehicle: distilled water + alcohol).

On to `CCOC(=O)C(=C/C=C/N(C)C)C(=O)OCC`, for which, under setting [8], the survivor count is given as 0 of 6.

`COc1ccc(N2C(N)=NC(N)=NC2(C)C)cc1`: the survivor count is, setting by setting: under setting [3], 3 of 5; under setting [4], 0 of 5; under setting [5], 0 of 5.

As to `C=Cc1cc[n+](CC(=O)c2ccc(-c3ccccc3)cc2)cc1`, the survivor count (dose: 100.0 mg/kg/injection, schedule: Q01DX009 (ip), vehicle: Klucel (hydroxypropylcellulose) (HPC)) is 0 of 6.

With `C[Si](C)(C)CNCc1ccccc1`, the survivor count is 3 of 6 under setting [6] and 0 of 6 under setting [7].

As to `COc1cccc2c1C(=O)c1c(O)c3c(c(O)c1C2=O)C[C@@](O)(C(O)CO)C[C@@H]3OC1CC(N(Cc2ccccc2)Cc2ccccc2)C(O)C(C)O1` (some centres not stated), the T/C by setting is: (dose: 25.0 mg/kg/injection, schedule: Q04DX003 (ip), vehicle: water) 148 % of control; (dose: 50.0 mg/kg/injection, schedule: Q04DX003 (ip), vehicle: water) 140 % of control; (dose: 200.0 mg/kg/injection, schedule: Q04DX003 (ip), vehicle: water) 126 and 142 % of control.

`NCCSC(C[N+](=O)[O-])c1ccc2c(c1)OCO2` (configuration not stated): the T/C (dose: 50.0 mg/kg/injection, schedule: Q01DX009 (ip), vehicle: saline with Tween-80) was 129 % of control and the T/C (dose: 100.0 mg/kg/injection, schedule: Q01DX009 (ip), vehicle: saline with Tween-80) was 135 % of control. For the same molecule, the survivor count (dose: 200.0 mg/kg/injection, schedule: Q01DX009 (ip), vehicle: saline with Tween-80) is given as 4 of 6.

`CCOC(=O)NC(NC(=O)OCC)C(=O)Nc1cccc2c(OC(=O)C(NC(=O)OCC)NC(=O)OCC)c(N=Nc3ccc(S(=O)(=O)Nc4nccs4)cc3)cc(N=Nc3ccc(S(=O)(=O)Nc4nccs4)cc3)c12` (tested in a mixture with another compound): the T/C was 127 % of control under setting [3] and 129 % of control under setting [5]. Also, the survivor count by setting is: under setting [5], 1 of 5; (dose: 400.0 mg/kg/injection, schedule: Q01DX005 (ip), vehicle: saline with Tween-80) 2 of 5.

`N[C@H]1c2ccsc2C(=O)[C@H]1O`: the T/C under setting [6] is 145 % of control.

For the molecule `CNC(C)(C(=O)O)C(=O)Nc1ccccc1` (configuration not stated), under setting [8], the T/C is 130 % of control.
